In the test the target is T1, Arabidopsis thaliana mitochondrial pyruvate carrier 1 (AtMPC1), Flag-tagged (Arabidopsis thaliana) (UniProt Q949R9).
T1 sequence: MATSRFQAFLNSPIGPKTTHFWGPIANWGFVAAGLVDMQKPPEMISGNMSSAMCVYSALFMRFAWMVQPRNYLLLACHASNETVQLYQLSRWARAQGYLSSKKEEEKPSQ
The experiment in a line: co-IP; MPC1-Flag and NRGA1-MYC co-expressed in tobacco (N. benthamiana) leaves; extract in 50 mM Tris-HCl pH 8.0, 150 mM NaCl, 1% Triton X-100; precipitated with anti-Flag antibody and protein A agarose, 4 °C; immunoblot with anti-MYC.

Results are given in words; binding and its absence hold for the method and conditions named. Binding seen in cells or lysates may run through a third protein. Binding calls can cover weak binding; strength is not graded here. Tags and fused reporters may be left off the sequences shown.

In PMC5700692 one finds binding data, which are given here for 1 substance.

As to “Negative Regulator of Guard cell ABA signaling 1 (NRGA1), MYC-tagged (Arabidopsis thaliana)”, the binding entry was “binds”.
